For this assay, the target named is T1, Aromatase (Homo sapiens, UniProt P11511).
T1 sequence (P11511 whole entry): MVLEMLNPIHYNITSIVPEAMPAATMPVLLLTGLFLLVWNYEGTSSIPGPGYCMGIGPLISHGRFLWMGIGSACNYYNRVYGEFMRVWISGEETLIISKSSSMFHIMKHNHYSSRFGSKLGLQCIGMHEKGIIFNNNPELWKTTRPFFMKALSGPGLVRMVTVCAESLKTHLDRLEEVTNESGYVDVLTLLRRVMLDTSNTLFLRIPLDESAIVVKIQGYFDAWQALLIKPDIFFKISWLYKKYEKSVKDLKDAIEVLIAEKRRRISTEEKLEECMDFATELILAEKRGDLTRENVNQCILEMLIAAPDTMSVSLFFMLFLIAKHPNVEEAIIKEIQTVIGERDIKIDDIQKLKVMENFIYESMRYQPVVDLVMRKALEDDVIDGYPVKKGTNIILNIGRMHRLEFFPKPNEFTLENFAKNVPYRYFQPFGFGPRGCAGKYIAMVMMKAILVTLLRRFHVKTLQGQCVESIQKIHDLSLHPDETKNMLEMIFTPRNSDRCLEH
Put plainly: Inhibition of aromatase using 7-methoxy-4-trifluoromethyl coumarin as substrate after 30 mins by fluorescence-based colorimetric analysis.

IC50 data for 2 compounds are collected here from ChEMBL document CHEMBL1821589, “Synthesis and structure-activity relationship of 1- and 2-substituted-1,2,3-triazole letrozole-based analogues as aromatase inhibitors” (Eur J Med Chem, 2011).

`N#Cc1ccc(C(c2ccc(C#N)cc2)n2ccnn2)cc1` registered an IC50 of 8 nM.

The compound `N#Cc1ccc(Cn2ccnc2)cc1` registered an IC50 of 7 nM.

As a reminder, the IC50 is the midpoint of a concentration-inhibition curve. Higher therefore signals weaker potency.
